According to PubChem BioAssay AID743255 (National Center for Advancing Translational Sciences (NCATS), 2014):
About 910 (0.23%) of roughly 390,000 compounds were called active. Inconclusive results, whose numbers are uncertain, are shown with a selection of clear calls. Calls come from the whole dose curve; as a rule, active = well fitted inhibition curve with a large enough effect; inconclusive = small, poorly fitted or top-dose-only effect; inactive = no such curve, though single readings can be large or run the other way. Where the call is inconclusive, the potency comes from a doubtful curve fit.

Sequences of proteins named here, by UniProt entry; tags and fusion partners are left off. A change or cut given only in a name is not applied to a line headed by its entry.
UniProt O94782: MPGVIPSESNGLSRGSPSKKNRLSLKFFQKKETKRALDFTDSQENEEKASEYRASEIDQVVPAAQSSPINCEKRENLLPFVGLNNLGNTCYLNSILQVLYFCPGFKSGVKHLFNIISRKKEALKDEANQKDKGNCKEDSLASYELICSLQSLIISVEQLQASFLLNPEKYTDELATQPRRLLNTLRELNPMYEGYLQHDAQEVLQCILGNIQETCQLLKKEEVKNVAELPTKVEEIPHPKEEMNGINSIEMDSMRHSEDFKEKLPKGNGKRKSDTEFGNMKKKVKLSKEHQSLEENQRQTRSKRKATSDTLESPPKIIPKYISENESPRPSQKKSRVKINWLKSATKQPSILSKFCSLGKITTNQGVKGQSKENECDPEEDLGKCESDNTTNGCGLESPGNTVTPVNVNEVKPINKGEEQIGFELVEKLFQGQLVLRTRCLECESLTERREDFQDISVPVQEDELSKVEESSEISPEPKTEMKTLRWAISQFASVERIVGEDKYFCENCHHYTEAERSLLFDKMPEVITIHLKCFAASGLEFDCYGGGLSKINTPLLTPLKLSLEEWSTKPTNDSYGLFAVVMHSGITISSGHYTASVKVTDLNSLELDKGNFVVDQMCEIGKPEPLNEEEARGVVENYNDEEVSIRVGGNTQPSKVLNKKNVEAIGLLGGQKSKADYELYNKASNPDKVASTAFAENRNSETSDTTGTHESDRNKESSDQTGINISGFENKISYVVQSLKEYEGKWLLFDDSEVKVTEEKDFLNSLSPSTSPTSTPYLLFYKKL

Biological target: Ubiquitin carboxyl-terminal hydrolase 1 (Homo sapiens) (UniProt O94782)
Assay: Inhibitors of USP1/UAF1: Primary Screen; note: nearly all actives have a fitted effect of over 60% in size
Settings: recombinant USP1/UAF1, Ub-Rhodamine cleavage fluorescence; activity change, negative = inhibition: at 57.1 µM (top of the series)
Summary of the method: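 Step one: compound is pinned into 1nM USP1/UAF1 in HEPES pH 7.8 buffer with TCEP. Step two: 15 min room-temperature incubation. Step three: Ub-Rho (150nM final) starts cleavage, tracked by fluorescence over six one-minute reads.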
% is set by controls: 0 for no effect and ±100 for the full control effect; potency is the fitted concentration of half-maximal effect.

Potency, active:
O=C(O)c1ccc(NC2=C/C(=N/S(=O)(=O)c3ccccc3)c3ccccc3C2=O)cc1 2.82 µM

Potency, inactive:
CCOc1ccc(NS(=O)(=O)c2ccc3[nH]cc(C(=O)NCC4CCCO4)c(=O)c3c2)cc1 (stereo not given)

Potency, inconclusive:
COc1cc(C2NC(=O)c3c(sc4c3CCN(C)C4)N2)ccc1OC(=O)c1ccccc1 (stereo not given) 25.1 µM [inhibitor, partial curve]
COc1cccc(NC(=O)N2CCN(C(=O)c3nsc4ccccc34)CC2)c1 50.1 µM [inhibitor, partial curve, poor fit]
O=C(/C(=N/N=C/c1ccc(O)c(O)c1O)c1ccccc1)c1ccccc1 39.8 µM [inhibitor, partial curve]
Cc1ccc(/C=C/c2nnc(-c3cccc(C)c3)o2)cc1 35.5 µM [inhibitor, partial curve]
Cc1c(NC(=O)c2ccc(Br)o2)cccc1-c1nc2ccccc2o1 0.0282 µM [inhibitor, full curve, poor fit]
Cc1cccc(Cn2cccc2CNS(=O)(=O)c2ccc(C)c(C)c2)c1 39.8 µM [inhibitor, single point]
OC(COc1cccc2ccccc12)CN1CCN(c2cccc(Cl)c2)CC1 (stereo not given) 50.1 µM [inhibitor, partial curve, poor fit]
O=C(Nc1cccc(Br)c1)c1cc(-c2ccc3c(c2)OCCO3)on1 70.8 µM [inhibitor, partial curve, poor fit]
COc1ccccc1N(C)S(=O)(=O)c1ccc(C(=O)Nc2cccc(Br)c2)cc1 44.7 µM [inhibitor, partial curve, poor fit]
Cc1cccc(OCCOCCN2CCOCC2)c1C 25.1 µM [inhibitor, partial curve]
NCCCS(=O)(=O)O 31.6 µM [inhibitor, single point]
Cc1cc(NC(=O)CC(C)C)c(=O)n(Cc2ccccc2F)c1 20 µM [inhibitor, partial curve]
Cc1ccn2c(Nc3ccc4c(c3)OCO4)c(-c3ccccn3)nc2c1 31.6 µM [inhibitor, partial curve]
Cc1ccc(C(C)C)c(OCC(O)CN(C)Cc2ccccc2)c1 (stereo not given) 39.8 µM [inhibitor, partial curve]
Cc1nc2nc(SCC(=O)N(Cc3ccccc3)C(C)C)nn2c(C)c1Cc1ccccc1Cl 7.94 µM [inhibitor, full curve, poor fit]
CC1CC(C)CN(C(=O)CSCC(=O)Nc2nc(-c3cccs3)cs2)C1 (stereo not given) 25.1 µM [inhibitor, partial curve]
COc1cccc(CNC(=S)Nc2cc(C)ccc2C)c1 35.5 µM [inhibitor, partial curve]
COc1ccc(NCc2cc3ccc(OC)cc3n(CC(=O)Nc3cc(Cl)ccc3C)c2=O)cc1 8.91 µM [inhibitor, full curve, poor fit]
Cc1ccc(/C=C2\Sc3ccccc3C2=O)s1 15.8 µM [inhibitor, partial curve]
Cc1cccc(-c2nc3c4ccccc4nc(NCc4ccc(F)cc4)n3n2)c1 1.12 µM [inhibitor, full curve, poor fit]
CCCNS(=O)(=O)c1ccc(C(=O)NCC2CCCO2)cc1 (stereo not given) 35.5 µM [inhibitor, single point]
COc1cccc(OC(=O)CSc2nnc(-c3ccc4c(c3)OCO4)o2)c1 6.31 µM [inhibitor, full curve, poor fit]
COCC(C)n1c(SCC(=O)NC(=O)NCc2ccccc2)nc2ccccc2c1=O (stereo not given) 6.31 µM [inhibitor, full curve, poor fit]
Cc1ccc(Cl)cc1NC(=O)CN1C(=O)C(C)(C)c2cc(S(=O)(=O)N3CCCCC3)ccc21 0.316 µM [inhibitor, full curve, poor fit]
CC1CCN(C2=C(NS(=O)(=O)c3ccccc3)C(=O)c3ccccc3C2=O)CC1 31.6 µM [inhibitor, partial curve]
COc1ccc(-c2cn(/N=C/c3ccc(Cl)cc3Cl)c(N)n2)cc1 2.82 µM [inhibitor, partial curve]
COc1ccc(N=Cc2c(O)c3ccccc3n2C(C)=O)cc1 28.2 µM [inhibitor, partial curve]
CCCCCCc1cc2cc(C(=O)NC)c(=N)oc2cc1O 44.7 µM [inhibitor, partial curve, poor fit]
O=S(=O)(Nc1nc2ccccc2s1)c1ccc(Cl)s1 0.355 µM [inhibitor, full curve, poor fit]
CC1C2C(C)N(C)C(=O)N(C)C2N(C)C(=O)N1C (stereo not given) 25.1 µM [inhibitor, single point]
CC(=O)Nc1ccc(SCC(=O)Nc2sccc2C#N)cc1 5.62 µM [inhibitor, partial curve, poor fit]
Fc1ccc(CNC(=S)NCc2ccc(F)cc2)cc1 56.2 µM [inhibitor, single point]
O=C1c2ccccc2-c2onc3c(NCCO)cc(NC4CCCCC4)c1c23 25.1 µM [inhibitor, partial curve]
COc1ccccc1NC(=O)O/N=C(\N)c1ccccc1 14.1 µM [inhibitor, partial curve, poor fit]
O=C(Nc1ccccc1)c1csc(-c2ccccc2)n1 39.8 µM [inhibitor, partial curve, poor fit]
C[C@@H]1CN(Cc2nc(Cc3ccccc3F)no2)C[C@H](C)O1 6.31 µM [inhibitor, full curve, poor fit]
COC(=O)C1(C)CCCC2(C)c3cc(OC)ccc3C(=O)C(Br)C12 (stereo not given) 44.7 µM [inhibitor, partial curve, poor fit]
COc1ccc(NC(=O)CCCN2C(=O)COc3ccc(C)cc32)cc1OC 44.7 µM [inhibitor, single point]
COc1cc(-c2cc(OC)c3c(C)oc(C)c3c(=O)c2)ccc1OC(=O)c1cccc(Cl)c1 100 µM [inhibitor, partial curve, poor fit]
COc1cc(SC)ccc1C(=O)N1CC(C)OC(C)C1 (stereo not given) 39.8 µM [inhibitor, partial curve, poor fit]
CCC(C)[C@H](NC(=O)C1CC(=O)N(c2ccc3c(c2)OCO3)C1)C(=O)NC1CCCCC1 (stereo not given in full) 44.7 µM [inhibitor, partial curve]
Cc1ccc(Cn2cc(CCC(=O)NCc3ccc(OC(C)C)cc3)c3ccccc32)cc1 50.1 µM [inhibitor, single point]
COc1ccc(/C=N/Nc2ncnc3sc4c(c23)CCCC4)cc1OC 44.7 µM [inhibitor, partial curve]
O=C1c2oc3ccccc3c(=O)c2C(c2cccc(Cl)c2)N1c1ccccn1 (stereo not given) 1.26 µM [inhibitor, full curve, poor fit]
COc1ccccc1C(=O)Nc1ccc(OCc2cc(=O)n3cc(C)sc3n2)cc1 15.8 µM [inhibitor, partial curve, poor fit]
COc1ccc(Cc2nnc(NS(=O)(=O)c3ccc([N+](=O)[O-])cc3)s2)cc1 44.7 µM [inhibitor, single point]
O=S(=O)(O)c1cccc2cccc(Nc3ccccc3)c12 39.8 µM [inhibitor, partial curve, poor fit]
Oc1ccc(/C=N\Nc2cc(N3CCOCC3)nc(N3CCOCC3)n2)c(O)c1 39.8 µM [inhibitor, partial curve, poor fit]

3 entries already listed, arranged by count of non-hydrogen atoms, rising.
Potency, inconclusive:
Cc1cc(NC(=O)CC(C)C)c(=O)n(Cc2ccccc2F)c1 20 µM [inhibitor, partial curve]
Cc1ccc(C(C)C)c(OCC(O)CN(C)Cc2ccccc2)c1 (stereo not given) 39.8 µM [inhibitor, partial curve]
COc1cccc(NC(=O)N2CCN(C(=O)c3nsc4ccccc34)CC2)c1 50.1 µM [inhibitor, partial curve, poor fit]

Random excerpt: two entries already listed.
Potency, inconclusive:
COc1ccc(/C=N/Nc2ncnc3sc4c(c23)CCCC4)cc1OC 44.7 µM [inhibitor, partial curve]
CCC(C)[C@H](NC(=O)C1CC(=O)N(c2ccc3c(c2)OCO3)C1)C(=O)NC1CCCCC1 (stereo not given in full) 44.7 µM [inhibitor, partial curve]

Following part.

Activity change, negative = inhibition, inactive:
COc1ccc(CNC(=O)CCNS(=O)(=O)c2ccc(Br)s2)cc1 -2.86%
Oc1ccc(Br)cc1-c1cc(-c2ccccc2Cl)[nH]n1 -6.99%
C/C(=N\NC(=O)c1ccc(Cl)c(Cl)c1)c1ccccn1 -11.6%
O=C(NCCc1ccc(O)c(O)c1)C1COc2ccccc2O1 (stereo not given) -11.4%
COc1cccc(/C=C2/SC(=S)N(CC(=O)Nc3nnc(C)s3)C2=O)c1 -7.07%
Cc1ccc(C(=O)OCC(=O)Nc2nc(-c3ccccc3)cs2)cc1NC(=O)c1ccco1 -0.846%
Nc1[nH]nc2nc3ccccc3cc12 -19.2%
CCOC(=O)c1ccc(OC(=O)c2cn(-c3cccc(OC)c3)c(=O)c3ccccc23)cc1 -12.9%
COc1ccc(C(CNC(=O)COc2cc(C)cc(C)c2)N2CCOCC2)cc1 (stereo not given) -11%
Cc1ccc(S(=O)(=O)c2nnn3c2nc(NCc2ccccc2Cl)c2sccc23)cc1 10.7%
CC(C)(C)NC(=O)c1oc2ccccc2c1NC(=O)c1ccc(F)cc1 -18.7%
Cc1cc(C)n(-c2nc(N(C)C)nc(N(C)C)n2)n1 -4.56%
Cc1oc(C)c2c(=O)ccc3c(c12)OC(N)=C(C#N)C3c1ccc(F)cc1 (stereo not given) -7.57%
COc1ccc2[nH]c3c(=O)n(Cc4ccc(C(=O)N5CCC(C(N)=O)CC5)cc4)c(=S)[nH]c3c2c1 -23.5%
O=C1NC(=S)SC1=Cc1ccccc1Cl -37.1%
